Assays:
[1] = Photosensitizer activity: oxygen consumption with histidine as substrate (Clark electrode); format: physicochemical; conditions: histidine 2 mM in PBS pH 7.4; halogen lamp illumination
[2] = Photochemical singlet oxygen generation (emission at 1270 nm after laser excitation in toluene); format: physicochemical; conditions: air saturated toluene; excitation 532 nm; tetraphenylporphyrin as standard
Description: Compound B dissolved in toluene was excited with a 9 mJ, 15 ns laser pulse at 532 nm from a home-built Q-switched frequency doubled Nd:YAG laser operating at 10 Hz. Emission from singlet oxygen at 1270 nm was detected at 90° to the quartz cuvette by an InGaAs photodiode, amplified and then signal-averaged (256 shots) on a digital oscilloscope (HP infinium). A 1260 nm interference filter (FWHM=75 nm) was used to protect the detector from laser light and sensitizer fluorescence. Typical decay times were 28±1 μs, which is characteristic for singlet oxygen decay in toluene (M. Okamoto et al, J. Phys. Chem., 1993, 97, pp. 177-180.) Tetraphenylporphyrin was used as a standard to determine the relative singlet oxygen yield (ΦΔ) (F. Wilkinson, et al, J. Phys. Chem. Ref. Data., 1993, 22, pp. 113-2162.). The relative quantum yield for compound 5 in air saturated toluene was 0.72. […] This stability of the compound according to the invention as exemplified by compound 5 towards singlet oxygen is surprising. In many porphyrins with appending double bonds the double bond reacts chemically with the singlet oxygen generated by the system. […]

Substance: 2′-aminocarbonyl-8′-formyl-N′-methyl-1′,1a′,5a′,6′-tetrahydroacrido[4,5,5a,6-bcd]-annulated 2,3-dihydromesoporphyrin dimethylester [compound 6]
- decrease in dissolved oxygen (oxygen consumption rate) [1]: 34 % per minute

Substance: 2′-cyano-8′-formyl-N-methyl-1,1a,5a,6-tetrahydroacrido-[4,5,5a,6-bcd]-annulated 2,3-dihydromesoporphyrin dimethylester [compound 5]
- relative singlet oxygen quantum yield (ΦΔ) [2]: 0.72

Substance: 2′-cyano-8′-formyl-N-methyl-1,1a,5a,6-tetrahydroacrido-[4,5,5a,6-bcd]-annulated 2,3-dihydromesoporphyrin dimethylester nickel complex [compound 4]
- relative singlet oxygen quantum yield (ΦΔ) [2]: < 0.01

Substance: 2′-cyano-8′-formyl-N′-methyl-1′,1a′,5a′,6′-tetrahydroacrido[4,5,5a,6-bcd]-annulated 2,3-dihydromesoporphyrin dicarboxylic acid [compound 7]
- decrease in dissolved oxygen (oxygen consumption rate) [1]: 20 % per minute

Substance: 2′-cyano-8′-formyl-N′-methyl-1′,1a′,5a′,6′-tetrahydroacrido[4,5,5a,6-bcd]-annulated octaethyl porphyrin [compound 11]
- decrease in dissolved oxygen (oxygen consumption rate) [1]: 50 % per minute

Reference: patent US20090215851A1, “Method of Preparing a Porphyrin Derivative, a Porphyrin Derivative, Use of Said Porphyrin derivative and a pharmaceutical composition containing said porphyrin derivative” (PHOTOBIOCHEM N.V., priority 2005, published 2009)
